Source: article PMC11322666
No constants are given. Whether binding was seen depends on the method and setting. In cells and extracts the contact can be indirect. For some assays here: Binding calls can cover weak binding; strength is not graded here.

What was measured:
[1] = biological target: IRE1α^ΔKR-Flag (human); test: co-IP; lysates of transfected HEK293T or U2OS cells (24 h) in NETN buffer (20 mM Tris-HCl pH 8.0, 100 mM NaCl, 1 mM EDTA, 0.5% NP-40), IP with anti-Flag (M2) magnetic beads or the indicated antibodies, western blot; Fig. 3G two-way
[2] = biological target: IRE1α^ΔR-Flag (human); test: as above

B1: UPF3B, endogenous (protein, UniProt Q9BZI7 1-483)
chain: MKEEKEHRPKEKRVTLLTPAGATGSGGGTSGDSSKGEDKQDRNKEKKEALSKVVIRRLPPTLTKEQLQEHLQPMPEHDYFEFFSNDTSLYPHMYARAYINFKNQEDIILFRDRFDGYVFLDNKGQEYPAIVEFAPFQKAAKKKTKKRDTKVGTIDDDPEYRKFLESYATDNEKMTSTPETLLEEIEAKNRELIAKKTTPLLSFLKNKQRMREEKREERRRREIERKRQREEERRKWKEEEKRKRKDIEKLKKIDRIPERDKLKDEPKIKVHRFLLQAVNQKNLLKKPEKGDEKELDKREKAKKLDKENLSDERASGQSCTLPKRSDSELKDEKPKRPEDESGRDYREREREYERDQERILRERERLKRQEEERRRQKERYEKEKTFKRKEEEMKKEKDTLRDKGKKAESTESIGSSEKTEKKEEVVKRDRIRNKDRPAMQLYQPGARSRNRLCPPDDSTKSGDSAAERKQESGISHRKEGGEE
Q: With B1 as the binder, how does the binding [1] read?
A: Its binding is “no binding”.

Q: And the binding [2]?
A: Its binding is “binds”.
